Data as given in PubChem BioAssay AID1159584 (Peter MacCallum Cancer Centre, 2016)

Screen: 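Genes that CDH1-null MCF10A cells selectively depend on to survive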 (primary screen)
Cell system: human MCF10A breast epithelial cells, parental and CDH1-null
Knock-down reagent: siRNA against human genes
Read-out: 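ATP luminescence (CellTiter-Glo) viability per line relative to mean mock wells over all plates, and the ratio of CDH1-null to parental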
Reading the numbers: CDH1-null / parental viability ratio: higher = CDH1-null cells survive relatively better than parental; CDH1-null viability vs mock: higher = more viable CDH1-null cells; parental viability vs mock: higher = more viable parental cells
The whole screen tested about 18,000 reagents; shown is a random part of them. The numbers tell different reagents against one gene apart. Not given: the amount of reagent, the time to read-out.

| gene | siRNA no. | CDH1-null / parental viability ratio | CDH1-null viability vs mock (fraction of mock) | parental viability vs mock (fraction of mock) |
| --- | --- | --- | --- | --- |
| NEDD1 | 1 | 0.87 | 0.45 | 0.52 |
| INCENP | 1 | 1.39 | 0.64 | 0.46 |
| EMC3 | 1 | 1.15 | 0.63 | 0.55 |
| RTCB | 1 | 0.94 | 0.85 | 0.9 |
| ZGRF1 | 1 | 0.72 | 0.36 | 0.5 |
| ZGRF1 | 2 | 1.09 | 0.99 | 0.91 |
| OR4X1 | 1 | 0.61 | 0.46 | 0.76 |
| CEP112 | 1 | 1.13 | 1.02 | 0.9 |
| UTF1 | 1 | 1.07 | 0.81 | 0.76 |
| TRAF4 | 1 | 0.93 | 0.53 | 0.57 |
| GLT8D2 | 1 | 1.03 | 0.97 | 0.94 |
| MFSD2A | 1 | 1.22 | 0.78 | 0.64 |
| ZFPL1 | 1 | 1.09 | 0.5 | 0.46 |
| ST7 | 1 | 1.38 | 0.65 | 0.47 |
| COXFA4L2 | 1 | 1.01 | 0.95 | 0.94 |
| SAT1 | 1 | 0.85 | 0.71 | 0.84 |
| PEAK3 | 1 | 1.04 | 0.48 | 0.46 |
| EPG5 | 1 | 1.29 | 0.67 | 0.52 |
| YWHAQ | 1 | 1.15 | 0.84 | 0.73 |
| DOCK4 | 1 | 1.01 | 0.81 | 0.8 |
| STRADB | 1 | 0.98 | 0.78 | 0.8 |
| HERC1 | 1 | 1.59 | 0.86 | 0.54 |
| KRT40 | 1 | 1.05 | 0.83 | 0.79 |
| EOLA2 | 1 | 1.05 | 0.88 | 0.84 |
| UPK1A | 1 | 0.99 | 0.73 | 0.74 |
| REX1BD | 1 | 0.61 | 0.46 | 0.76 |
| NEIL2 | 1 | 0.93 | 0.84 | 0.9 |
| ZNF385B | 1 | 0.7 | 0.47 | 0.67 |
| ARFIP2 | 1 | 0.91 | 0.68 | 0.75 |
| MS4A10 | 1 | 1.06 | 0.76 | 0.72 |
| TRIM54 | 1 | 0.96 | 0.98 | 1.02 |
| SKIC8 | 1 | 0.9 | 0.63 | 0.7 |
| MBLAC1 | 1 | 1.3 | 0.78 | 0.6 |
| RAB37 | 1 | 0.86 | 0.64 | 0.74 |
| ZFP64 | 1 | 0.6 | 0.25 | 0.42 |
| EXOC7 | 1 | 0.97 | 0.31 | 0.32 |
| H2AC13 | 1 | 0.84 | 0.46 | 0.55 |
| CRKL | 1 | 0.78 | 0.8 | 1.02 |
| RPLP0 | 1 | 1.06 | 0.36 | 0.34 |
| GALNT16 | 1 | 1.07 | 0.9 | 0.84 |
| CLEC10A | 1 | 1.2 | 0.84 | 0.7 |
| ETS2-AS1 | 1 | 1.05 | 1.07 | 1.02 |
| NKAIN1 | 1 | 0.89 | 0.72 | 0.81 |
| RAB15 | 1 | 1.26 | 0.88 | 0.7 |
| APOC4 | 1 | 1.28 | 0.95 | 0.74 |
| STX17 | 1 | 0.98 | 0.43 | 0.44 |
| CA11 | 1 | 1.12 | 1.01 | 0.9 |
| DHRS13 | 1 | 0.96 | 0.82 | 0.85 |
| PML | 1 | 0.94 | 0.67 | 0.71 |
| PIWIL2 | 1 | 0.72 | 0.56 | 0.78 |
| PLCXD1 | 1 | 1.03 | 1.13 | 1.1 |
| CD47 | 1 | 1.08 | 0.84 | 0.78 |
| SRPX | 1 | 0.93 | 0.7 | 0.75 |
| CHST1 | 1 | 0.76 | 0.81 | 1.06 |
| IL38 | 1 | 0.96 | 0.64 | 0.67 |
| PATZ1 | 1 | 1.05 | 0.45 | 0.43 |
| PLOD3 | 1 | 1.02 | 0.41 | 0.4 |
| SPDYE1 | 1 | 1.07 | 0.74 | 0.69 |
| AGBL3 | 1 | 0.72 | 0.42 | 0.58 |
| PLCZ1 | 1 | 1.09 | 1.06 | 0.97 |
| IRAG1 | 1 | 1.04 | 0.85 | 0.82 |
| HSPA1L | 1 | 1.05 | 0.86 | 0.82 |
| PXMP2 | 1 | 1.19 | 0.74 | 0.62 |
| RPS10 | 1 | 1.07 | 0.32 | 0.3 |
| PGS1 | 1 | 1.02 | 0.84 | 0.82 |
| CENPX | 1 | 1.18 | 0.84 | 0.71 |
| DNAJB4 | 1 | 1.15 | 0.85 | 0.74 |
| HSH2D | 1 | 0.94 | 0.58 | 0.62 |
| PSMC2 | 1 | 1.19 | 0.57 | 0.48 |
| TLL1 | 1 | 1.32 | 0.7 | 0.53 |
| POLK | 1 | 0.95 | 0.76 | 0.8 |
| RNF121 | 1 | 0.83 | 0.71 | 0.86 |
| XRCC5 | 1 | 0.87 | 0.69 | 0.79 |
| TRIM44 | 1 | 0.88 | 0.82 | 0.93 |
| KLHL38 | 1 | 1.08 | 0.7 | 0.65 |
| CFAP44 | 1 | 0.9 | 1 | 1.11 |
| METTL4 | 1 | 0.83 | 0.64 | 0.77 |
| CXorf66 | 1 | 1.11 | 0.91 | 0.82 |
| BAHCC1 | 1 | 0.9 | 0.72 | 0.8 |
| IL17RC | 1 | 0.95 | 0.95 | 1 |
| PGBD2 | 1 | 1.04 | 0.54 | 0.52 |
| GNL2 | 1 | 0.84 | 0.72 | 0.86 |
| OR51E1 | 1 | 1.15 | 0.93 | 0.81 |
| ACVR2A | 1 | 1.32 | 1.19 | 0.9 |
| TAF5L | 1 | 1.04 | 0.84 | 0.81 |
| ATP5F1B | 1 | 1.11 | 0.8 | 0.72 |
| HRH2 | 1 | 0.76 | 0.5 | 0.66 |
